PMC4123598

The chains behind the UniProt entries cited, without tags or fusion partners.
UniProt O00255: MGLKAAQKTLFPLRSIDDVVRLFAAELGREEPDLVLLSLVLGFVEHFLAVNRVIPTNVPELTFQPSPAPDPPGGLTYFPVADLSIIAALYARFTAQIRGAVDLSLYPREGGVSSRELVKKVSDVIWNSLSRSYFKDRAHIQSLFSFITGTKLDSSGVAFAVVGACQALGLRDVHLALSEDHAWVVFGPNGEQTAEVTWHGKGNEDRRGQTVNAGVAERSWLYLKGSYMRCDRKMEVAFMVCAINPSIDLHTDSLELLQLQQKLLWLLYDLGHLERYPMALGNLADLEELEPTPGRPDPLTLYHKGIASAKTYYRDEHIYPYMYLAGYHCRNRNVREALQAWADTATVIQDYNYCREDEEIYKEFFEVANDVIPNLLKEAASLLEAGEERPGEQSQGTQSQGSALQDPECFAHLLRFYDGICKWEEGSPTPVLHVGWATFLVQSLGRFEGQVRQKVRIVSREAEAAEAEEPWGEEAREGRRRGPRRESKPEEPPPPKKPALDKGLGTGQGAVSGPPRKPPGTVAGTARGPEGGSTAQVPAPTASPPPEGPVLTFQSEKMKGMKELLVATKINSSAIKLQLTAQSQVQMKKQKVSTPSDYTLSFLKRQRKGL
UniProt Q96AE4: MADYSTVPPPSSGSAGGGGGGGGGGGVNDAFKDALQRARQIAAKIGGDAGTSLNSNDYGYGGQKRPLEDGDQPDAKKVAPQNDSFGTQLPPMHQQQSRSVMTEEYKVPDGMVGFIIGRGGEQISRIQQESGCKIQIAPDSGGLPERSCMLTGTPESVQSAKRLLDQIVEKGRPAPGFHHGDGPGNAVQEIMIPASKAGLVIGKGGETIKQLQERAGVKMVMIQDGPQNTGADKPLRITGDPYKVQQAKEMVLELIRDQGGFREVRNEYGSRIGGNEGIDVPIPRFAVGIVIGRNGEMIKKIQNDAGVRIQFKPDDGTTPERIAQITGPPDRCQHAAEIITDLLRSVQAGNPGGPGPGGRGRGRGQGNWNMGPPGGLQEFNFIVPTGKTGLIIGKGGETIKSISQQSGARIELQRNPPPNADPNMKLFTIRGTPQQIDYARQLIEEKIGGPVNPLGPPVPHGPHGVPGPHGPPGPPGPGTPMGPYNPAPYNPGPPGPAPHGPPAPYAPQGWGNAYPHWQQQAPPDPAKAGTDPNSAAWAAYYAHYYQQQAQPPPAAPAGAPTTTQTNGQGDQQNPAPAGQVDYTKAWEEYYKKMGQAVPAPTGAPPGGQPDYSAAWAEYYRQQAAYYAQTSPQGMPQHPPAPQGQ
UniProt O75475: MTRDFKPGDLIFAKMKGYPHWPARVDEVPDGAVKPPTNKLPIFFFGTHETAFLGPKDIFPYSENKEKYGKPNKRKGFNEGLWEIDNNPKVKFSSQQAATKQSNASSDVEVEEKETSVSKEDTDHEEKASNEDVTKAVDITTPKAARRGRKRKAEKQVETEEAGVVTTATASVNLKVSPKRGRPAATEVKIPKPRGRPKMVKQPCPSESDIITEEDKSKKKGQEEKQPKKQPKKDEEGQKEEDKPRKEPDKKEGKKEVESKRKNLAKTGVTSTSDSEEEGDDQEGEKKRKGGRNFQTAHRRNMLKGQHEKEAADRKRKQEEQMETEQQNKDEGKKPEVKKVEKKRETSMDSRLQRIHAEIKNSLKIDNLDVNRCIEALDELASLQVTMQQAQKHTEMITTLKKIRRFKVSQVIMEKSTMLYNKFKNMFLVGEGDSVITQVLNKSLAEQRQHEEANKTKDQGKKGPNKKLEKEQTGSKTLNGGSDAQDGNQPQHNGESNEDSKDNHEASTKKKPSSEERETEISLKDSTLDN
UniProt Q9UBL3: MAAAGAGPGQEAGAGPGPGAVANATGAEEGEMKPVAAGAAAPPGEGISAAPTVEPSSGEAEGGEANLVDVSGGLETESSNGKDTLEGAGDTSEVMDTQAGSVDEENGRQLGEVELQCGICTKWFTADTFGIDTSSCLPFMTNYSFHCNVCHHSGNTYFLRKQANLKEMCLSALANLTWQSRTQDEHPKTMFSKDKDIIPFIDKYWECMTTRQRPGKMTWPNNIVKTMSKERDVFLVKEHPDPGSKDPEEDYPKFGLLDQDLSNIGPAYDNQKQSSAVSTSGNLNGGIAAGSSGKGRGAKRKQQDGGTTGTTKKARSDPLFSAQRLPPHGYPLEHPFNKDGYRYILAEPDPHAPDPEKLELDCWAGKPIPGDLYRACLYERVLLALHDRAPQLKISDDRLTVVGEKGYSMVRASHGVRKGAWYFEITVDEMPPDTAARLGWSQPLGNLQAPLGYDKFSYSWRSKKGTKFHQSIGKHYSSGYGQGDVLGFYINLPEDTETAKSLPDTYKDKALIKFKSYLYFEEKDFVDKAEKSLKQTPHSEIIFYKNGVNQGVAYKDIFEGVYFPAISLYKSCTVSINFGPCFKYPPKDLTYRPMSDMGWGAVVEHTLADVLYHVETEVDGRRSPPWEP
UniProt Q15291: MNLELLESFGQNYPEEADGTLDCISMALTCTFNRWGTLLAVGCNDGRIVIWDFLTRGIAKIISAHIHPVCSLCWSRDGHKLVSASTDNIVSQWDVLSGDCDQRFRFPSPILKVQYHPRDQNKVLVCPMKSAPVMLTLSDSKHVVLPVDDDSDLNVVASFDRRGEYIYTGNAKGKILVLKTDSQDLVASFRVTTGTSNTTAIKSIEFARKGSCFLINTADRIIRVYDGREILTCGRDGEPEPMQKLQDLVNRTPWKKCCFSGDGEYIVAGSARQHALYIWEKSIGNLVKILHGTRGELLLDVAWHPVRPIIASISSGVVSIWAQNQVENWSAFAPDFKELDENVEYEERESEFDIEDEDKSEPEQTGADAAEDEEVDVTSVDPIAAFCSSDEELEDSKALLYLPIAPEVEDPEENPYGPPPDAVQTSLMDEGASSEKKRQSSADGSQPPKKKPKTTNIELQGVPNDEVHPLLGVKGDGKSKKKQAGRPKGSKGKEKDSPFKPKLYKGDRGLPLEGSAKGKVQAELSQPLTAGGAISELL

Target: menin (human (endogenous in HeLa)) (UniProt O00255)
Assay: affinity purification with mass spectrometry; large-scale immunoprecipitation of menin from HeLa nuclear extracts with the SQVb or the H-MEN1b antibody; menin specific bands analysed by electrospray ion trap mass spectrometry; unrelated antibody as control

binding	Substance
binds	FBP1 (from UniProt Q96AE4 1-644)
binds	LEDGF (from UniProt O75475 1-530)
binds	ASH2 (from UniProt Q9UBL3 1-628)
binds	RBBP5 (from UniProt Q15291 1-538)

No constants are given. Whether binding was seen depends on the method and setting. In cells and extracts the contact can be indirect. Here binding means that the protein was enriched with, or labelled near, the bait; the list need not be complete.
